Our source for the binding values is PMC9813255.

Results are given in words; binding and its absence hold for the method and conditions named. Binding seen in cells or lysates may run through a third protein. For some assays here: Binding calls can cover weak binding; strength is not graded here. Sequences can lack the tags named with a protein.

In one assay the target is Myc-Htt (Exon1-103Q). Put plainly: co-IP; U2OS cells transiently expressing FLAG-FL-PQBP5 and Myc-Htt or Myc-Atxn1, harvested 48 h after transfection; lysis in TNE buffer, Protein-G Sepharose.
In another assay the target is Myc-Htt (Exon1-17Q). The description is as above.

B1: FLAG-FL-PQBP5 (protein, UniProt Q9BSC4-1 1-688)
chain: MQVSSLNEVKIYSLSCGKSLPEWLSDRKKRALQKKDVDVRRRIELIQDFEMPTVCTTIKVSKDGQYILATGTYKPRVRCYDTYQLSLKFERCLDSEVVTFEILSDDYSKIVFLHNDRYIEFHSQSGFYYKTRIPKFGRDFSYHYPSCDLYFVGASSEVYRLNLEQGRYLNPLQTDAAENNVCDINSVHGLFATGTIEGRVECWDPRTRNRVGLLDCALNSVTADSEINSLPTISALKFNGALTMAVGTTTGQVLLYDLRSDKPLLVKDHQYGLPIKSVHFQDSLDLILSADSRIVKMWNKNSGKIFTSLEPEHDLNDVCLYPNSGMLLTANETPKMGIYYIPVLGPAPRWCSFLDNLTEELEENPESTVYDDYKFVTKKDLENLGLTHLIGSPFLRAYMHGFFMDIRLYHKVKLMVNPFAYEEYRKDKIRQKIEETRAQRVQLKKLPKVNKELALKLIEEEEEKQKSTWKKKVKSLPNILTDDRFKVMFENPDFQVDEESEEFRLLNPLVSKISEKRKKKLRLLEQQELREKEEEEEPEGKPSDAESSESSDDEKAWVEEVRKQRRLLQQEEKVKRQERLKEDQQTVLKPQFYEIKAGEEFRSFKDSATKQKLMNKTLEDRLKIEAKNGTLSVSDTTVGSKQLTFTLKRSEQQKKQQEAEKLHRQERKRLRRSAGHLKSRHKRGRSFH
As to B1, the binding result is reported as “binds” with Myc-Htt (Exon1-103Q) and “no binding” with Myc-Htt (Exon1-17Q).
